From the supplement of paper PMC10849652 come the findings set out here.

Amino acid sequences for entries named in this document (tags omitted). A change or cut given only in a name is not applied to a line headed by its entry.
UniProt P26358: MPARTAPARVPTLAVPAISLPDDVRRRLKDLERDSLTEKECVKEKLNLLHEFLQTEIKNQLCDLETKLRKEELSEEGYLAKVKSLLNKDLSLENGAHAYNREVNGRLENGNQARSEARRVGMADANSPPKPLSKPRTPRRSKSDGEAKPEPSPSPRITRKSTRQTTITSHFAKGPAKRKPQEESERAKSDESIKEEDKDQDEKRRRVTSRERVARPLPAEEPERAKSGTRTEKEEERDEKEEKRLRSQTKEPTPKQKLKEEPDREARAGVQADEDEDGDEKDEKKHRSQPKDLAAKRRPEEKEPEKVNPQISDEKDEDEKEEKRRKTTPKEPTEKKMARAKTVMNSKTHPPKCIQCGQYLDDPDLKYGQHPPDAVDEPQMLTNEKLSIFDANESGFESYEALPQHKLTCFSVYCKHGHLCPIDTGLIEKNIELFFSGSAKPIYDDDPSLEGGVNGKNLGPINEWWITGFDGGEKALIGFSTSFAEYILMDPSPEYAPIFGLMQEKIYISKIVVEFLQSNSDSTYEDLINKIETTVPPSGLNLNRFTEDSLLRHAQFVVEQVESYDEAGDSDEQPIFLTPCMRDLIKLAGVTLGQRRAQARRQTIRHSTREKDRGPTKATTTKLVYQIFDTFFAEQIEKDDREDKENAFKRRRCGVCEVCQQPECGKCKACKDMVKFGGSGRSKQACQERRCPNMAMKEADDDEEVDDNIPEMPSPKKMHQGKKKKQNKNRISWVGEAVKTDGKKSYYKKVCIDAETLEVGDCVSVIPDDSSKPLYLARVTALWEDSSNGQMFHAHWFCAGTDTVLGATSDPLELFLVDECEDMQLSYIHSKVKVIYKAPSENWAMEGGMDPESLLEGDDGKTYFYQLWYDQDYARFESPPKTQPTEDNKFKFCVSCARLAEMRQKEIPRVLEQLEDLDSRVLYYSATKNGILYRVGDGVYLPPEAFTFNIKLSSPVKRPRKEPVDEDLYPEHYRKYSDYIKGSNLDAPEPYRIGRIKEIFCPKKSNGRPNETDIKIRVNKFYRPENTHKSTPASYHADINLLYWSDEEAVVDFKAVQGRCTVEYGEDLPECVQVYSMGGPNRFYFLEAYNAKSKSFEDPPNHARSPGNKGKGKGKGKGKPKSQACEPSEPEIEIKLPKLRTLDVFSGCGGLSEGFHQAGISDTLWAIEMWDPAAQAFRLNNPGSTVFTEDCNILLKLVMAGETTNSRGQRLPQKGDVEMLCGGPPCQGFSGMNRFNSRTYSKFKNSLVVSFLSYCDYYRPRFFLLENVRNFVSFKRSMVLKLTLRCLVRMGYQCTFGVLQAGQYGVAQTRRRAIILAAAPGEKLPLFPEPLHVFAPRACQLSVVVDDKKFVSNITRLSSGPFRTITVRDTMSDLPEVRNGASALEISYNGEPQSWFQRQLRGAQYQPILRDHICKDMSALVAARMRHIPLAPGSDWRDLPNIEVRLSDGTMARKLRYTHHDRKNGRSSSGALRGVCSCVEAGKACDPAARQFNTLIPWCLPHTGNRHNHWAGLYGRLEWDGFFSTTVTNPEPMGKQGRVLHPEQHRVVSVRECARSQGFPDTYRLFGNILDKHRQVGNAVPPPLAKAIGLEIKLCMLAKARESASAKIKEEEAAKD
UniProt Q9BY27: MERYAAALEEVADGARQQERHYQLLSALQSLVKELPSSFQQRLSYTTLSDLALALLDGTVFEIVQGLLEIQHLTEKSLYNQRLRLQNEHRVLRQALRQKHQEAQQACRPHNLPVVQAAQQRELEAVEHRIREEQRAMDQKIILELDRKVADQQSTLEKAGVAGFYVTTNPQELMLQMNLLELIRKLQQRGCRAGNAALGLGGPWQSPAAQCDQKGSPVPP
UniProt O60496: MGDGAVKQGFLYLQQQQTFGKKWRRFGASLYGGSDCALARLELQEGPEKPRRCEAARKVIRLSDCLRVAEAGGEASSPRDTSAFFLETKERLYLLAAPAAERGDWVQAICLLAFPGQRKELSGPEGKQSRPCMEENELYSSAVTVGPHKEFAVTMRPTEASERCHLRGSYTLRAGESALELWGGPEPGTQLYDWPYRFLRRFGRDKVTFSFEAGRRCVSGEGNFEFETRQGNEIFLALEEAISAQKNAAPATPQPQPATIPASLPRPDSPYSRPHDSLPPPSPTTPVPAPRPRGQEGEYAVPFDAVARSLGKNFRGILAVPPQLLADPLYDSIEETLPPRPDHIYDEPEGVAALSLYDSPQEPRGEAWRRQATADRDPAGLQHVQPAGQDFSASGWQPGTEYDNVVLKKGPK
UniProt Q05193: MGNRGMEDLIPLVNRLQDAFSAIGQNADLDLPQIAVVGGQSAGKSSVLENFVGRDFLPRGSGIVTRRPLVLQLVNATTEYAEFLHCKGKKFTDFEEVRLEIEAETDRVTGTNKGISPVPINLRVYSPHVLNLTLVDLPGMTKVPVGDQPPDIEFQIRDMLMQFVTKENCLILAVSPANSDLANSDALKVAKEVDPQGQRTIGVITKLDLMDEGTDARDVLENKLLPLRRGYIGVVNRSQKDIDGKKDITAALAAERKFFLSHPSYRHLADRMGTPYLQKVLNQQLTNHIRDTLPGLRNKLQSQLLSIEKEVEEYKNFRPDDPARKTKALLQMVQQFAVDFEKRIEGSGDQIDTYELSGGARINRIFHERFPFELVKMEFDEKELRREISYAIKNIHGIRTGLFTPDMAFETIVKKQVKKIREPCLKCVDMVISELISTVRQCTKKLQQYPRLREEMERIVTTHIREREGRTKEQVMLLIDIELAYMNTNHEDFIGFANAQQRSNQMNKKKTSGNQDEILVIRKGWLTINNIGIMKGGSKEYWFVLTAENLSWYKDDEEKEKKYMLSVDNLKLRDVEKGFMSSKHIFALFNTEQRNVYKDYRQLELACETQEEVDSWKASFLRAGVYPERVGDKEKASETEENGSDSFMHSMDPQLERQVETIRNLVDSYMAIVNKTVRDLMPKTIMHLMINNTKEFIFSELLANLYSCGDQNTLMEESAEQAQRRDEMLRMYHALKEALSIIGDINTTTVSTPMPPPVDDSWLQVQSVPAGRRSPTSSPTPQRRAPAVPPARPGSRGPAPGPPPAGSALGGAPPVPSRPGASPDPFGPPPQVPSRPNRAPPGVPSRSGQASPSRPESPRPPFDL
UniProt Q9Y2G8: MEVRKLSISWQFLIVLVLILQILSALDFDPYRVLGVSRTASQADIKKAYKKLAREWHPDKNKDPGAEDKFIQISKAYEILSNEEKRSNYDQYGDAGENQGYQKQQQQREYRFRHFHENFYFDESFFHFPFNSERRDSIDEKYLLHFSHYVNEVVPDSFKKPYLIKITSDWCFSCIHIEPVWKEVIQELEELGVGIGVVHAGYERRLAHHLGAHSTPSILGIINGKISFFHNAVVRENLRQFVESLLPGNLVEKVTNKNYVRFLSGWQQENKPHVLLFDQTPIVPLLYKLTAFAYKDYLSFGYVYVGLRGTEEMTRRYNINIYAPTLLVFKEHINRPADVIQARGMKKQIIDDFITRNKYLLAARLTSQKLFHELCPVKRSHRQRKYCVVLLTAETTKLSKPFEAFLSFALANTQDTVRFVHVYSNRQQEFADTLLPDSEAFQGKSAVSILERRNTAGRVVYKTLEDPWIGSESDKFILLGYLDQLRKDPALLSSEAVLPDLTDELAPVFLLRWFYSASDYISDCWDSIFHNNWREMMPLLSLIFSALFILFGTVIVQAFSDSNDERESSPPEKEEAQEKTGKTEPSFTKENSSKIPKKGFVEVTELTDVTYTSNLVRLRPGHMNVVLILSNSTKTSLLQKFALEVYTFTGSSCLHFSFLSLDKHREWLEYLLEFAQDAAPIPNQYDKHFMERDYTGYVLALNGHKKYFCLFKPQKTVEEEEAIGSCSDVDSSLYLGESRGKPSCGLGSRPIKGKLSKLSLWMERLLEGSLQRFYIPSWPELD
UniProt Q96HP0: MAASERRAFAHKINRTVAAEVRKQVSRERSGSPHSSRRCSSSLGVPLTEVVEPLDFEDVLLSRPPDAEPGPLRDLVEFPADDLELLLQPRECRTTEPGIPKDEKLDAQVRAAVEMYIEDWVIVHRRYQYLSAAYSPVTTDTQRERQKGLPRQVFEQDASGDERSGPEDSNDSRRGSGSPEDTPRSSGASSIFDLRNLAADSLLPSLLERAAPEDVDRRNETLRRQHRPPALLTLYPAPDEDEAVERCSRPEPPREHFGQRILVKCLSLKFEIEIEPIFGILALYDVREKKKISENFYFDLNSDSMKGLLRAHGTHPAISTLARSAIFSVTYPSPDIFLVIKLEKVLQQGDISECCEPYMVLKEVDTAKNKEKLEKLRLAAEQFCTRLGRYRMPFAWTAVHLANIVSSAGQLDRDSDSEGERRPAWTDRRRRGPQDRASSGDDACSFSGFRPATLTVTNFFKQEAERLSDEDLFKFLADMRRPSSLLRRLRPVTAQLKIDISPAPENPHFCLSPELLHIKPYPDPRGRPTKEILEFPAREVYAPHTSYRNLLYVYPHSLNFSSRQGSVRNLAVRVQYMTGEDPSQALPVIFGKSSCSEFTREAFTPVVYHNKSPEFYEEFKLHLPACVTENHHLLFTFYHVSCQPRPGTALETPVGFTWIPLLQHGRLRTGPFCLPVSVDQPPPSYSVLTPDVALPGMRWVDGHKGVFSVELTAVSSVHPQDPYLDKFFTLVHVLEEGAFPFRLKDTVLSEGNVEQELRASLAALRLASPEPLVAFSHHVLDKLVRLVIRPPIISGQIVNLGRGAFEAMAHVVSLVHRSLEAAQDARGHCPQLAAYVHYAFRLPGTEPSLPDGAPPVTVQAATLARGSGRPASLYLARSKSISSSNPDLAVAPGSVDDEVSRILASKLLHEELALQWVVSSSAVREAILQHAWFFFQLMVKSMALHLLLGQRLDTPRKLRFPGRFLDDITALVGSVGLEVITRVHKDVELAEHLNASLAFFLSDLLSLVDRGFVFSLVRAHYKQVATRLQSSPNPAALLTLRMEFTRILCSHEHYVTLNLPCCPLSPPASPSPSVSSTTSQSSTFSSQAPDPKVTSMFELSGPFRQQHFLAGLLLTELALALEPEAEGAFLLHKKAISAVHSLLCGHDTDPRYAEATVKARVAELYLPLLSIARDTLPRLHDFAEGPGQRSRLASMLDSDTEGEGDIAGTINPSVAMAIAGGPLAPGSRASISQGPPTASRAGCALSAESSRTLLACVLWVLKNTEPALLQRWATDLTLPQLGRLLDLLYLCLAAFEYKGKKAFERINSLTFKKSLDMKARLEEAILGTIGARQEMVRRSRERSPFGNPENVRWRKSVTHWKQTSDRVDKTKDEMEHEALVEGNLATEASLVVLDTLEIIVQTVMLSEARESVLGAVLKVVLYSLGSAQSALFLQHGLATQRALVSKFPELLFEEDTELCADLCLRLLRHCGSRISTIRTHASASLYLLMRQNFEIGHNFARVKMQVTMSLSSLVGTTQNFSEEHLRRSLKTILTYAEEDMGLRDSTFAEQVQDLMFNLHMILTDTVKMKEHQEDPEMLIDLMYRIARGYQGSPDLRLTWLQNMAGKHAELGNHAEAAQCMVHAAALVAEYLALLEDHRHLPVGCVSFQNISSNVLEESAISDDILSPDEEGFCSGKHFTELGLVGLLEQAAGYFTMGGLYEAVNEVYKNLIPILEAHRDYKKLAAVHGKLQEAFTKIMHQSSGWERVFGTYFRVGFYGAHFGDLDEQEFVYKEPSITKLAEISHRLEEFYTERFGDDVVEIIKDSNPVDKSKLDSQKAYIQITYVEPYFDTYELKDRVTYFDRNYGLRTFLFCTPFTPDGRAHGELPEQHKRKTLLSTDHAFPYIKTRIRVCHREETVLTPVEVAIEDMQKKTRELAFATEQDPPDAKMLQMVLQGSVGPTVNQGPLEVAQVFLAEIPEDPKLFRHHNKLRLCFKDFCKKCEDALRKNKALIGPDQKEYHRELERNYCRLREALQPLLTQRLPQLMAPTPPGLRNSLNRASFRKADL
UniProt Q6UX07: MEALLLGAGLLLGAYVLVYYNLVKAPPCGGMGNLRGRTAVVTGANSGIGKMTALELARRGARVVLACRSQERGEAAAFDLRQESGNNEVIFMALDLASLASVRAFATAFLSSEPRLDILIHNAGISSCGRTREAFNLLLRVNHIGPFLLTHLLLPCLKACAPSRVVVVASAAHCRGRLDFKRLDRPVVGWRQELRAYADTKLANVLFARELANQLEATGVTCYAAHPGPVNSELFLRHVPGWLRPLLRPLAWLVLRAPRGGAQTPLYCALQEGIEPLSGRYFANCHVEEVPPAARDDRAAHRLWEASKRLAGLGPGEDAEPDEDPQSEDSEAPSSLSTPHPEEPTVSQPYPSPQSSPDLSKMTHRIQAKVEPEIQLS
UniProt Q5SXM8: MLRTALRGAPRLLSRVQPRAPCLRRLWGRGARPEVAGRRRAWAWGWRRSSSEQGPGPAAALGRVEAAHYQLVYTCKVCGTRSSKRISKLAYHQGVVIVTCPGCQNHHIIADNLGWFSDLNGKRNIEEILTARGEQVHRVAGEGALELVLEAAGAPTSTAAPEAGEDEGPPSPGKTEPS

The other results are listed elsewhere or left out.

Common to all, as to experiment: log2 fold change, soluble protein after heating vs DMSO (PISA); higher = thermal stabilisation; K562 lysate, 10 uM; active = over 0.2 and 3.5 SD of the protein, either way, in both replicates (recomputed)
Compound in assay [1]: O=C1NC(=O)C(c2cnc3ccccn23)=C1c1cn2c3c(cc(F)cc13)CN(C(=O)N1CCCCC1)CC2
A digest of the protocol: (§1)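 Values give the log-two fold change in thermal stability against solvent controls, from duplicates. Crude K562 extract at 1 mg/mL protein, made by dounce homogenisation in PBS pH 7.4 with 1 mM MgCl2, was treated with 10 μM compound for 30 min. After 3 min heating across 48°C-58°C, aliquots were pooled, adjusted to 0.5% NP-40 at 4°C and centrifuged at 21,000xg for 90 min. The supernatant was measured by TMTpro 16plex LC-MS/MS with channel sums equalised.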

Compound in a further assay: c1cn2cc(-c3ccc4cn[nH]c4c3)nc(Nc3ccc(N4CCOCC4)cc3)c2n1 [entospletinib]
The method in brief:
as §1

Compound in assay [2]: NCC(=O)Nc1ccc(-n2nc(C(F)(F)F)cc2-c2ccc3c(ccc4ccccc43)c2)cc1
The method in brief:
as §1

Compound in another assay: O=C(CCCCCCC(=O)Nc1ccccc1)NO [vorinostat]
A digest of the protocol:
as §1

Compound in another assay: O=C(O)c1ccc2c(c1)nc(Nc1cccc(Cl)c1)c1ccncc12 [silmitasertib]
A digest of the protocol: as §1

Take DNMT1 (UniProt P26358): the log2 fold change in assay [1] is inactive: 0.028.
On the same count and under the same terms, the result for DGCR6L (UniProt Q9BY27) reads inactive: 0.096.
Turning to DOP1A (UniProt Q5JWR5), the log2 fold change was inactive: -0.049 in assay [1] and inactive: 0.049 with entospletinib.
In the case of DNMT3B (UniProt Q9UBC3), the log2 fold change was inactive: -0.068 in assay [2] and inactive: 0.151 with entospletinib.
DOK2 (UniProt O60496): the log2 fold change in the assay with vorinostat is inactive: -0.459; with silmitasertib, inactive: 0.001.
With DNM1 (UniProt Q05193), the results for the log2 fold change (with vorinostat; with silmitasertib; in assay [1]) were inactive: -0.211, inactive: 0.066 and inactive: 0.063, respectively.
As to DLX2 (UniProt Q07687), the figures for the log2 fold change with vorinostat and in the assay with silmitasertib were inactive: -0.216 and inactive: -0.092, respectively.
Regarding DNAJC19, A0A2R8Y839, the log2 fold change in assay [1] is inactive: 0.072.
Same read-out and setting: the result for DNAJC16 (UniProt Q9Y2G8) reads inactive: 0.043.
Consider DGCR2 (UniProt P98153), for which the log2 fold change is inactive: 0.05 in assay [2], inactive: 0.209 with vorinostat, inactive: 0.082 in the assay with silmitasertib and inactive: -0.007 in the assay with entospletinib.
For the target DHX16 (UniProt O60231), the log2 fold change in assay [2] is inactive: -0.006; with vorinostat, inactive: 0.043; with silmitasertib it was inactive: -0.004; in assay [1], inactive: -0.01; with entospletinib, inactive: 0.052.
As to DOCK6 (UniProt Q96HP0), the log2 fold change was inactive: -0.096 with vorinostat and inactive: -0.352 in the assay with silmitasertib.
With DHRS13 (UniProt Q6UX07), the log2 fold change with vorinostat is active: 1.11; in the assay with silmitasertib it was inactive: 0.059; in assay [1], inactive: -0.001.
Take DNM2 isoform 4 (UniProt P50570): the log2 fold change in the assay with vorinostat was active: -0.826; in the assay with silmitasertib it was inactive: 0.047; in assay [1], inactive: -0.014; in the assay with entospletinib it was inactive: -0.02.
DNLZ (UniProt Q5SXM8): the values for the log2 fold change with vorinostat and with silmitasertib were inactive: 0.061 and inactive: 0.144, respectively.
